Results are given in words; binding and its absence hold for the method and conditions named. Some entries that bind do so weakly or less than the wild type. Each block holds one binder with its values, some of them ahead of it.
Experiments:
[1] = target: recombinant CDH17 (cadherin-17), coated on microtiter wells (UniProt Q12864); experiment: ELISA, recombinant CDH17 coated
[2] = target: recombinant CDH17 (cadherin-17), coated on microtiter wells (UniProt Q12864); experiment: ELISA, CHO conditioned medium on recombinant CDH17, anti-human Fc-HRP

Sequences of proteins named here, by UniProt entry; tags and fusion partners are left off. Residues count along the entry.
UniProt Q12864, residues 23-787: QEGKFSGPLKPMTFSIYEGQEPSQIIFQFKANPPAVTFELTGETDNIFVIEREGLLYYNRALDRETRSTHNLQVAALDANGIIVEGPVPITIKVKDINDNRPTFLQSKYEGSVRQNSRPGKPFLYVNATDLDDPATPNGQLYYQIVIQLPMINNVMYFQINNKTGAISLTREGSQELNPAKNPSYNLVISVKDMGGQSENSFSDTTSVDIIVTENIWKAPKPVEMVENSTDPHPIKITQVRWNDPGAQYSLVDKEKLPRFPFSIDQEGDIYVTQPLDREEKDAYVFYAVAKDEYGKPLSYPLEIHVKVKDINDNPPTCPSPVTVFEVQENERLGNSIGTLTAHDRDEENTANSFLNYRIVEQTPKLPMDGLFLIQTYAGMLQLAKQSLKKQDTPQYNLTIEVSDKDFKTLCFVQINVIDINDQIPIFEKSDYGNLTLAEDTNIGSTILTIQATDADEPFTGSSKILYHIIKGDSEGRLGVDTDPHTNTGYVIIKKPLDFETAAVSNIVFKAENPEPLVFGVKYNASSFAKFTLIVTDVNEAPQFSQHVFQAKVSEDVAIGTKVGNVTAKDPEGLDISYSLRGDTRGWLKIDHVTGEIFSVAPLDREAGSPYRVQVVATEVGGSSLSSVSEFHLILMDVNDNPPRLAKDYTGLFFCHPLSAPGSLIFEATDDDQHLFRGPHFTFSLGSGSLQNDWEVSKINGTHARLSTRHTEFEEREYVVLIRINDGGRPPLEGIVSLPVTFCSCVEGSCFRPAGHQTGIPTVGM

binding [1]: binds | binding [2]: binds
B1: h5G1fL, CDH17xCD3 bispecific antibody of the IgG-scFv / fL (full length) design, IgG1 (bispecific antibody, not shown: a dimerising Fc or GST; large carriers)
heavy (part 1 of 2): QVQLVQSGAEVKKPGASVKVSCKVSAYAFSSSWMNWVRQAPGKGLEWMGRIYPRDGDTNYNGKFKGRVTMTADTSTDTAYMELSSLRSEDTAVYYCAREGDGYYWYFDVWGQGTTVTVSS
heavy (part 2 of 2): EVQLVESGGGLVQPGGSLRLSCAASGYSFTGYTMNWVRQAPGKGLEWVALINPYKGVSTYNQKFKDRFTISVDKSKNTAYLQMNSLRAEDTAVYYCARSGYYGDSDWYFDVWGQGTLVTVSSGGGGSGGGGSGGGGSDIQMTQSPSSLSASVGDRVTITCRASQDIRNYLNWYQQKPGKAPKLLIYYTSRLESGVPSRFSGSGSGTDYTLTISSLQPEDFATYYCQQGNTLPWTFGQGTKVEIK
light: EIVLTQSPATLSLSPGERATLSCRASQSIRNYLHWYQQKPGEAPRLLIYYASQSISGIPARFSGSGSGTDFTLTISSLETEDFAMYYCQHSNSWPLTFGQGTKLEIK

B2: h10G4fL (h10G4U1fL; ARB202), CDH17xCD3 bispecific antibody of the IgG-scFv / fL design, IgG4 (bispecific antibody)
heavy: EVQLVESGGGLVQPGGSLRLSCAASGFTFSSYAMSWVRQTPGKGLEWVAVIDSNGGSTYYPDTVKDRFTISRDNSKNTLYLQMNSLRAEDTAVYYCSSYTNLGAYWGQGTLVTVSSASTKGPSVFPLAPSSKSTSGGTAALGCLVKDYFPEPVTVSWNSGALTSGVHTFPAVLQSSGLYSLSSVVTVPSSSLGTQTYICNVNHKPSNTKVDKRVEPKSCDKTHTCPPCPAPELLGGPSVFLFPPKPKDTLMISRTPEVTCVVVDVSQEDPEVQFNWYVDGVEVHNAKTKPREEQFNSTYRVVSVLTVLHQDWLNGKEYKCKVSNKGLPSSIEKTISKAKGQPREPQVYTLPPSQEEMTKNQVSLTCLVKGFYPSDIAVEWESNGQPENNYKTTPPVLDSDGSFFLYSRLTVDKSRWQEGNVFSCSVMHEALHNHYTQKSLSLSLGKPAGGGGSEVQLVESGGGLVQPGGSLRLSCAASGYSFTGYTMNWVRQAPGKGLEWVALINPYKGVSTYNQKFKDRFTISVDKSKNTAYLQMNSLRAEDTAVYYCARSGYYGDSDWYFDVWGQGTLVTVSSGGGGSGGGGSGGGGSDIQMTQSPSSLSASVGDRVTITCRASQDIRNYLNWYQQKPGKAPKLLIYYTSRLESGVPSRFSGSGSGTDYTLTISSLQPEDFATYYCQQGNTLPWTFGQGTKVEIK
light: DIQMTQSPSSLSASVGDRVTITCRASQDISGYLNWLQQKPGGAIKRLIYTTSTLDSGVPKRFSGSGSGTDFTLTISSLQSEDFATYYCLQYASSPFTFGGGTKVEIKRTVAAPSVFIFPPSDEQLKSGTASVVCLLNNFYPREAKVQWKVDNALQSGNSQESVTEQDSKDSTYSLSSTLTLSKADYEKHKVYACEVTHQGLSSPVTKSFNRGEC
binding [1]: binds | binding [2]: binds

Reference: patent US20210115152A1 (ARBELE, published 2021)
